According to paper PMC3869376:
Numbering of substitutions follows the chain as printed. Names may count otherwise. Results are given in words; binding and its absence hold for the method and conditions named. In cells and extracts the contact can be indirect. Some binding calls cover weakened binding; strength is not graded here. Tags and fused reporters may be left off the sequences shown.

Sequences of proteins named here, by UniProt entry; tags and fusion partners are left off.
UniProt Q13370: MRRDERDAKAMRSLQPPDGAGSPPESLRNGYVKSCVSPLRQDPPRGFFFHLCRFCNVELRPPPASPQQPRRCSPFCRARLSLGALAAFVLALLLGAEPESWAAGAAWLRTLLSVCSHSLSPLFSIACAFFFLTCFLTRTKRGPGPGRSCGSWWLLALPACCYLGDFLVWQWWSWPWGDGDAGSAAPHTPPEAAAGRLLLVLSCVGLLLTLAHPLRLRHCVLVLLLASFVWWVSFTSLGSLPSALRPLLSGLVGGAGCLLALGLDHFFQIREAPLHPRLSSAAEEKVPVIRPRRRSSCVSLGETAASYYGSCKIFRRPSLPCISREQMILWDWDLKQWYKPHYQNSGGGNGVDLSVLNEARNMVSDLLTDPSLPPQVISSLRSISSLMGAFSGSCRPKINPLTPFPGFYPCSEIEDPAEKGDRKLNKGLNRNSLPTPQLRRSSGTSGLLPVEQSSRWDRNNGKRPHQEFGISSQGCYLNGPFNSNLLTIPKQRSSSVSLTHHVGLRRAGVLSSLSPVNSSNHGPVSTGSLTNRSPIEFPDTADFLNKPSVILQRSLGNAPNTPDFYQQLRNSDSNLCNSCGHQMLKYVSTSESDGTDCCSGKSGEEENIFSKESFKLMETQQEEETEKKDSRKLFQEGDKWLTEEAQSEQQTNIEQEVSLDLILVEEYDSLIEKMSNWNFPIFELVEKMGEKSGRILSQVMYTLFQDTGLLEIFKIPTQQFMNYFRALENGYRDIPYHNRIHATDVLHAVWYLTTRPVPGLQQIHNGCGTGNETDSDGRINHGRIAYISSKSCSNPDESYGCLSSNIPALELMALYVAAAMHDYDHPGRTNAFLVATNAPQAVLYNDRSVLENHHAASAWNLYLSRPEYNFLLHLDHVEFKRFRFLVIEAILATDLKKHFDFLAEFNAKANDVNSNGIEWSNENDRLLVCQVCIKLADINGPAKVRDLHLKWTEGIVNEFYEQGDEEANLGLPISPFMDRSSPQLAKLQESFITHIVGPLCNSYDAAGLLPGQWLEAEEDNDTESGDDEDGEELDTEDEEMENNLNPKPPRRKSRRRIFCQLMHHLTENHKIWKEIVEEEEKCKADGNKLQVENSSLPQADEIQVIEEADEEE

B1: Flag-TBK1 K38A (kinase-inactive) (enzyme, UniProt Q9UHD2 1-729)
chain: MQSTSNHLWLLSDILGQGATANVFRGRHKKTGDLFAIAVFNNISFLRPVDVQMREFEVLKKLNHKNIVKLFAIEEETTTRHKVLIMEFCPCGSLYTVLEEPSNAYGLPESEFLIVLRDVVGGMNHLRENGIVHRDIKPGNIMRVIGEDGQSVYKLTDFGAARELEDDEQFVSLYGTEEYLHPDMYERAVLRKDHQKKYGATVDLWSIGVTFYHAATGSLPFRPFEGPRRNKEVMYKIITGKPSGAISGVQKAENGPIDWSGDMPVSCSLSRGLQVLLTPVLANILEADQEKCWGFDQFFAETSDILHRMVIHVFSLQQMTAHKIYIHSYNTATIFHELVYKQTKIISSNQELIYEGRRLVLEPGRLAQHFPKTTEENPIFVVSREPLNTIGLIYEKISLPKVHPRYDLDGDASMAKAITGVVCYACRIASTLLLYQELMRKGIRWLIELIKDDYNETVHKKTEVVITLDFCIRNIEKTVKVYEKLMKINLEAAELGEISDIHTKLLRLSSSQGTIETSLQDIDSRLSPGGSLADAWAHQEGTHPKDRNVEKLQVLLNCMTEIYYQFKKDKAERRLAYNEEQIHKFDKQKLYYHATKAMTHFTDECVKKYEAFLNKSEEWIRKMLHLRKQLLSLTNQCFDIEEEVSKYQEYTNELQETLPQKMFTASSGIKHTMTPIYPSSNTLVEMTLGMKKLKEEMEGVVKELAENNHILERFGSLTMDGGLRNVDCL
B2: Flag-TBK1 (wild type) (enzyme, UniProt Q9UHD2 1-729)
chain: B1 chain with A38K

Target: HA-PDE3B (human), not phosphorylated by active TBK1 (human) (UniProt Q13370)
Experiment: co-IP; anti-HA immunoprecipitation from HEK293T cells co-expressing HA-PDE3B with a Flag-tagged kinase or its K38A mutant; immunoblot

Binder	binding
B1	binds
B2	binds weakly
